Protein sequences, listed by entry. Tags and fused reporters are not part of them. Lines headed by an entry give the natural chain unless they say otherwise; changes in a name come on top.
UniProt P33442: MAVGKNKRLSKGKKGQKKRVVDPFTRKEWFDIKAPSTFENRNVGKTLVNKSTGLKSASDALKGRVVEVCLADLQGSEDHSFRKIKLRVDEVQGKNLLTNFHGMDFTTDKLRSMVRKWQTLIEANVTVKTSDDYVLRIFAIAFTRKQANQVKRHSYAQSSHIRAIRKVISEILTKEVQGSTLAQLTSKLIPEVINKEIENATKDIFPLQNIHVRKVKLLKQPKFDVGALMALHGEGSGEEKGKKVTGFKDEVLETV

According to paper PMC7179242:

Molecular target: T1, Tsr1-FPZ (S. cerevisiae) (UniProt Q07381)
T1 sequence (chain, phosphorylated on T354 or S358 (100% of the peptide)): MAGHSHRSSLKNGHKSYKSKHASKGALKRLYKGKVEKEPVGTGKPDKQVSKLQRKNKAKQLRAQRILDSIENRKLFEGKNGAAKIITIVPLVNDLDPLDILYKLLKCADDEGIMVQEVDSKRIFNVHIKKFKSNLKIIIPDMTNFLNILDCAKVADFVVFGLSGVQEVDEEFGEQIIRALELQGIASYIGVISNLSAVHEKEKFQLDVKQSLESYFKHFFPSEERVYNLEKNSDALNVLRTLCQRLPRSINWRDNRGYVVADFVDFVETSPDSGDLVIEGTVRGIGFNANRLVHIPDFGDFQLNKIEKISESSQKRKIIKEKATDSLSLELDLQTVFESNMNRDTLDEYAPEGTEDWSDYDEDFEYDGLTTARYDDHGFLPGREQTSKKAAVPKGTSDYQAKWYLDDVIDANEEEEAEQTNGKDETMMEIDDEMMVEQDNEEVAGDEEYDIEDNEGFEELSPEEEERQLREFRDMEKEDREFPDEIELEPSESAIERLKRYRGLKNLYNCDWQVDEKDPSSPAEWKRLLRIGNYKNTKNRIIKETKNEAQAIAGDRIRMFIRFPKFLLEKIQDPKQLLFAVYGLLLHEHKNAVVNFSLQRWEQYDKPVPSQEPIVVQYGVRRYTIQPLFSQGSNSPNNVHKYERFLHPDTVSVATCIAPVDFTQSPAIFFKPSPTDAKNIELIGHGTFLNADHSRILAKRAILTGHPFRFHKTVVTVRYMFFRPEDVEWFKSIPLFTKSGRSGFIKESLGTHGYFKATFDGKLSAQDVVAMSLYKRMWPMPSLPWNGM
Experiment: cryo-EM structure; single particle analysis of Tsr1-FPZ pre-40S particles (ribonucleoprotein, purified from yeast by the bait Tsr1); consensus 3.1 Å, global classes GC1-GC3, focused classes H1-H3 (head) and P1-P3 (platform)

| Substance | binding |
| --- | --- |
| Rps1 (from UniProt P33442) | binds |
| Rps29 (S. cerevisiae (endogenous in BY4742)) | binds |

Results are given in words; binding and its absence hold for the method and conditions named. Binding calls can cover weak binding; strength is not graded here.
